Reference: PubChem BioAssay AID248 (DTP/NCI, 2004)
The list shows only some results of the screen, not a fair sample: it is rich in T/C values a quarter to a half above the control, in often repeated tests (any T/C) and in doses without a T/C. Other doses and runs of a compound stand elsewhere. T/C is the treated group as % of the vehicle group. Some doses have a count of surviving animals in place of a T/C: the source holds a T/C of zero for them, seemingly a mark for toxic or unscored doses. Some doses without a T/C left all or most animals alive at the check, yet need not have been tolerated: survival well below the control is almost never listed, so the zero probably covers shortened survival too. Counts of survivors are from the toxicity check (mostly the fifth day) where no day follows; animals may have died later. Schedules are NCI's codes, read here as Q, the interval in days (D) or hours (H), X, the number of doses. Where survival is the endpoint, this PubChem deposit counts one and a half times the control or more as active, and values a quarter to a half above the control carry no call in these data; other NCI protocols may use other cut-offs. Some T/C values carry the count of animals alive at the toxicity check (mostly the fifth day); where none is given, no animal had died by that day.

Test system: L1210 leukemia ip in BDF1 mice, survival T/C
Assay: NCI In Vivo Anticancer Drug Screen. Data for tumor model L1210 Leukemia (intraperitoneal) in B6D2F1 (BDF1) mice
Conditions: T/C endpoint: mean survival time, higher T/C = longer survival
[1] = dose: 100.0 mg/kg/injection, schedule: Q04DX003 (ip), vehicle: Klucel (hydroxypropylcellulose) (HPC)
[2] = dose: 200.0 mg/kg/injection, schedule: Q04DX003 (ip), vehicle: Klucel (hydroxypropylcellulose) (HPC)
[3] = dose: 400.0 mg/kg/injection, schedule: Q04DX003 (ip), vehicle: Klucel (hydroxypropylcellulose) (HPC)
[4] = dose: 400.0 mg/kg/injection, schedule: Q04DX003 (ip), vehicle: saline with Tween-80
[5] = dose: 400.0 mg/kg/injection, schedule: Q01DX009 (ip), vehicle: Klucel (hydroxypropylcellulose) (HPC)
[6] = dose: 400.0 mg/kg/injection, schedule: Q04DX003 (ip), vehicle: saline
[7] = dose: 200.0 mg/kg/injection, schedule: Q01DX001 (ip), vehicle: saline
[8] = dose: 400.0 mg/kg/injection, schedule: Q01DX001 (ip), vehicle: saline

O=Nc1ccc2cc(O)ccc2c1O
survivor count (dose: 25.0 mg/kg/injection, schedule: Q01DX009 (ip), vehicle: Klucel (hydroxypropylcellulose) (HPC)): 6 of 6
survivor count (dose: 50.0 mg/kg/injection, schedule: Q01DX009 (ip), vehicle: Klucel (hydroxypropylcellulose) (HPC)): 2 of 6
survivor count [1]: 2 of 6
survivor count [2]: 1 of 6
survivor count [3]: 0 of 6

NC(=O)c1ccccc1C(Cl)(Cl)Cl
survivor count (dose: 200.0 mg/kg/injection, schedule: Q01DX009 (ip), vehicle: saline with Tween-80): 6 of 6
survivor count [4]: 5 of 6

Cc1ccccc1-n1c(C)nc2ccccc2c1=O
survivor count [5]: 2 of 6

Nc1nc(=S)[nH]c(C(=O)O)c1Cc1ccccc1
survivor count (dose: 75.0 mg/kg/injection, schedule: Q04DX003 (ip), vehicle: Klucel (hydroxypropylcellulose) (HPC)): 6 of 6
survivor count (dose: 150.0 mg/kg/injection, schedule: Q04DX003 (ip), vehicle: Klucel (hydroxypropylcellulose) (HPC)): 6 of 6
survivor count (dose: 300.0 mg/kg/injection, schedule: Q04DX003 (ip), vehicle: Klucel (hydroxypropylcellulose) (HPC)): 6 of 6

O=C1C=CC(=O)N1c1ccc(Cl)cc1Cl
survivor count (dose: 100.0 mg/kg/injection, schedule: Q04DX003 (ip), vehicle: saline with Tween-80): 0 of 3
survivor count (dose: 200.0 mg/kg/injection, schedule: Q04DX003 (ip), vehicle: saline with Tween-80): 0 of 3
survivor count [4]: 0 of 3

O=C(Nc1ccc([N+](=O)[O-])cc1)c1cc(Cl)c2ccccc2c1O
survivor count [5]: 0 of 6

O=[N+]([O-])/C=C/c1cccs1
survivor count (dose: 400.0 mg/kg/injection, schedule: Q01DX001 (ip), vehicle: Klucel (hydroxypropylcellulose) (HPC)): 0 of 6

O=C1CCC(N2C(=O)C3C(C2=O)C2(Cl)C(Cl)=C(Cl)C3(Cl)C2(Cl)Cl)C(=O)N1 (stereo not given)
survivor count [6]: 0 of 3

O=C(NCCCl)Nc1cccnc1
survivor count (dose: 6.25 mg/kg/injection, schedule: Q01DX009 (ip), vehicle: saline): 6 of 6
survivor count (dose: 12.5 mg/kg/injection, schedule: Q01DX009 (ip), vehicle: saline): 6 of 6
survivor count (dose: 25.0 mg/kg/injection, schedule: Q01DX009 (ip), vehicle: saline): 6 of 6
survivor count (dose: 50.0 mg/kg/injection, schedule: Q04DX003 (ip), vehicle: saline with Tween-80): 4 of 6
survivor count [1]: 1 of 6
survivor count [2]: 1 of 6
survivor count [3]: 1 of 6

CCNCCC[P+](c1ccccc1)(c1ccccc1)c1ccccc1
survivor count (dose: 200.0 mg/kg/injection, schedule: Q04DX002 (ip), vehicle: saline): 0 of 3
survivor count (dose: 400.0 mg/kg/injection, schedule: Q04DX002 (ip), vehicle: saline): 0 of 3

O=C(Sc1ccc([N+](=O)[O-])cc1)C(=O)Sc1ccc([N+](=O)[O-])cc1
survivor count (dose: 50.0 mg/kg/injection, schedule: Q01DX009 (ip), vehicle: saline with Tween-80): 3 of 3

Cc1ccc2[nH]c(C)cc(=O)c2c1
survivor count (dose: 75.0 mg/kg/injection, schedule: Q01DX001 (ip), vehicle: saline): 0 of 6
survivor count (dose: 150.0 mg/kg/injection, schedule: Q01DX001 (ip), vehicle: saline): 0 of 6
survivor count (dose: 300.0 mg/kg/injection, schedule: Q01DX001 (ip), vehicle: saline): 0 of 6

O=Cc1ccc([N+](=O)[O-])o1
survivor count (dose: 50.0 mg/kg/injection, schedule: Q04DX002 (ip), vehicle: other): 1 of 3
survivor count (dose: 80.0 mg/kg/injection, schedule: Q01DX001 (ip), vehicle: saline): 2 of 6
survivor count (dose: 100.0 mg/kg/injection, schedule: Q01DX001 (ip), vehicle: saline): 0 of 6
survivor count (dose: 100.0 mg/kg/injection, schedule: Q04DX002 (ip), vehicle: other): 2 of 3
survivor count [7]: 0 of 6
survivor count (dose: 200.0 mg/kg/injection, schedule: Q04DX002 (ip), vehicle: other): 0 of 3
survivor count [8]: 0 of 6
survivor count (dose: 400.0 mg/kg/injection, schedule: Q04DX002 (ip), vehicle: other): 0 of 3

O=C(Nc1ccc([N+](=O)[O-])cc1)Nc1ccc([N+](=O)[O-])c(C(F)(F)F)c1
survivor count (dose: 100.0 mg/kg/injection, schedule: Q04DX003 (ip), vehicle: acetone): 3 of 6
survivor count (dose: 170.0 mg/kg/injection, schedule: Q01DX009 (ip), vehicle: saline with Tween-80): 2 of 6
survivor count [7]: 2 of 6
survivor count [8]: 2 of 6

Cc1ccc(NC(=O)OC/C=C/c2ccccc2)cc1NC(=O)OC/C=C/c1ccccc1
survivor count (dose: 100.0 mg/kg/injection, schedule: Q01DX009 (ip), vehicle: Klucel (hydroxypropylcellulose) (HPC)): 6 of 6
survivor count [5]: 6 of 6

COc1cc2ccc3cc[n+](C)cc3c2cc1OC
T/C (dose: 100.0 mg/kg/injection, schedule: Q01DX009 (ip), vehicle: saline): 129 % of control [4 of 6 alive]
survivor count (dose: 200.0 mg/kg/injection, schedule: Q01DX009 (ip), vehicle: saline): 2 of 6
survivor count (dose: 200.0 mg/kg/injection, schedule: Q04DX003 (ip), vehicle: saline): 6 of 6
survivor count (dose: 400.0 mg/kg/injection, schedule: Q01DX009 (ip), vehicle: saline): 0 of 6
survivor count [6]: 3 of 6

Nc1cc(Cl)c(Cl)c(Cl)c1
survivor count (dose: 200.0 mg/kg/injection, schedule: Q01DX001 (ip), vehicle: carboxymethylcellulose (CMC)): 2 of 4

c1ccc(C(c2ccccc2)n2cc[n+](C(c3ccccc3)c3ccccc3)c2)cc1
survivor count (dose: 50.0 mg/kg/injection, schedule: Q04DX002 (ip), vehicle: gum acacia): 0 of 3
survivor count (dose: 100.0 mg/kg/injection, schedule: Q04DX002 (ip), vehicle: gum acacia): 0 of 3
survivor count (dose: 200.0 mg/kg/injection, schedule: Q04DX002 (ip), vehicle: gum acacia): 0 of 3
survivor count (dose: 400.0 mg/kg/injection, schedule: Q04DX002 (ip), vehicle: gum acacia): 0 of 3

Nc1nc2ncc(CNc3ccc(C(=O)NC(CCC(=O)O)C(=O)O)cc3F)nc2c(=O)[nH]1 (stereo not given)
survivor count [7]: 2 of 4
survivor count [8]: 0 of 4

CCCCCCCCCC(O)CCCCC (stereo not given)
survivor count (dose: 400.0 mg/kg/injection, schedule: Q01DX009 (ip), vehicle: saline with Tween-80): 1 of 6

NNc1nncc(-c2ccccc2)n1
survivor count (dose: 37.0 mg/kg/injection, schedule: Q01DX001 (ip), vehicle: other): 3 of 6
T/C (dose: 50.0 mg/kg/injection, schedule: Q01DX001 (ip), vehicle: other): 127 % of control [5 of 6 alive]
survivor count (dose: 100.0 mg/kg/injection, schedule: Q01DX001 (ip), vehicle: other): 0 of 6
survivor count (dose: 200.0 mg/kg/injection, schedule: Q01DX001 (ip), vehicle: other): 0 of 6
survivor count (dose: 400.0 mg/kg/injection, schedule: Q01DX001 (ip), vehicle: other): 0 of 6

CC12CCC(=O)C=C1CCC1C2CCC2(C)C1CCC2[N+](C)(C)C (stereo not given)
survivor count (dose: 150.0 mg/kg/injection, schedule: Q01DX001 (ip), vehicle: other): 0 of 6
survivor count (dose: 300.0 mg/kg/injection, schedule: Q01DX001 (ip), vehicle: other): 2 of 6

CN(N)C(=S)c1ccc(Cl)cc1
survivor count [8]: 3 of 6

O=C1NC(CCCl)C(=O)NC1CCCl (stereo not given)
survivor count (dose: 400.0 mg/kg/injection, schedule: Q01DX001 (ip), vehicle: carboxymethylcellulose (CMC)): 2 of 4

CCOC(=O)N1C2CC=CCC1C1(c3ccccc3)OC2(c2ccccc2)c2ccccc21
survivor count (dose: 200.0 mg/kg/injection, schedule: Q04DX002 (ip), vehicle: DMSO): 3 of 3
survivor count (dose: 400.0 mg/kg/injection, schedule: Q04DX002 (ip), vehicle: DMSO): 1 of 3

N#C/C(=C\c1cc(Cl)cc(Cl)c1O)c1ccc([N+](=O)[O-])cc1
survivor count [4]: 1 of 6

CCOP(=S)(NN=C1CCCCC1)OCC
survivor count [8]: 0 of 4
